Data on two substances can be found in PMC5617467.

By UniProt entry, the sequences of proteins in these tests, tags left out.
UniProt Q96JN8: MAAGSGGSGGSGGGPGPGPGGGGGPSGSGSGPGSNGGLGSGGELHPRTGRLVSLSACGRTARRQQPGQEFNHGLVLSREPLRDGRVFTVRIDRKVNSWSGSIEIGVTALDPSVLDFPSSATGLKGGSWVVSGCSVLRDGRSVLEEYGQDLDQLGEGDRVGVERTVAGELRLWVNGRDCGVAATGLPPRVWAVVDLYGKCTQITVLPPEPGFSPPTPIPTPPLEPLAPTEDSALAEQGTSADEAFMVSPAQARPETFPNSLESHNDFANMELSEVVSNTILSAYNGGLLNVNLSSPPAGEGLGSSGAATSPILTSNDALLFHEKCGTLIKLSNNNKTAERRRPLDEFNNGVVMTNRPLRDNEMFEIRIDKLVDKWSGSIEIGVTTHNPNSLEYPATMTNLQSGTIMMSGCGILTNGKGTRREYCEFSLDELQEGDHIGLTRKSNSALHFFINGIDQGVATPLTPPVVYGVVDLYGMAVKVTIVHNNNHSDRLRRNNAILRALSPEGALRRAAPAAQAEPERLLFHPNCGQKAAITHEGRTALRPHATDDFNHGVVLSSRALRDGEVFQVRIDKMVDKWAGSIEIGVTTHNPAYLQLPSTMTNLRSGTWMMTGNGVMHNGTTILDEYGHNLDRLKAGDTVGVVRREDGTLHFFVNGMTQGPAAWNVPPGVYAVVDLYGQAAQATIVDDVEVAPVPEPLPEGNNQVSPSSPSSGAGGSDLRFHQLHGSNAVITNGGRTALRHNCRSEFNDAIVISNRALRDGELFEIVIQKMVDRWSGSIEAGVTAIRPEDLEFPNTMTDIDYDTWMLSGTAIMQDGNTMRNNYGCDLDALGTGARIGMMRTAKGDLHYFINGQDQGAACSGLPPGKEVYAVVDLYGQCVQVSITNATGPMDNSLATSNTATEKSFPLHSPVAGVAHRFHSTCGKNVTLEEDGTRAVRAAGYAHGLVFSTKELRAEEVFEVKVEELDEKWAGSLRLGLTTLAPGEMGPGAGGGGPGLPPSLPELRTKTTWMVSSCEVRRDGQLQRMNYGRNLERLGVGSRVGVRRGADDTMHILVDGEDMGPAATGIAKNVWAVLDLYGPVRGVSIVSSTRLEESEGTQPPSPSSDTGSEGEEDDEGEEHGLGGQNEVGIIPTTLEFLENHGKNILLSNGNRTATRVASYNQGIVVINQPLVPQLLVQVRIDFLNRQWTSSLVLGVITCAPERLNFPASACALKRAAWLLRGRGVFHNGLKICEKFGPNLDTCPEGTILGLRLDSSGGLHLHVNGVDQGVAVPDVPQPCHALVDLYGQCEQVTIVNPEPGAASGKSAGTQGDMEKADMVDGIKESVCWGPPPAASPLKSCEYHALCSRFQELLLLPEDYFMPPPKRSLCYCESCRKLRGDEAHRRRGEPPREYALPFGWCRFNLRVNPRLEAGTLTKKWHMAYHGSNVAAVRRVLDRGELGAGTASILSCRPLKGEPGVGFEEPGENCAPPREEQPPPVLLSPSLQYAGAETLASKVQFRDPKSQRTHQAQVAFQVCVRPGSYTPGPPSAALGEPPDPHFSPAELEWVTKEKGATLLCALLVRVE
UniProt O95714: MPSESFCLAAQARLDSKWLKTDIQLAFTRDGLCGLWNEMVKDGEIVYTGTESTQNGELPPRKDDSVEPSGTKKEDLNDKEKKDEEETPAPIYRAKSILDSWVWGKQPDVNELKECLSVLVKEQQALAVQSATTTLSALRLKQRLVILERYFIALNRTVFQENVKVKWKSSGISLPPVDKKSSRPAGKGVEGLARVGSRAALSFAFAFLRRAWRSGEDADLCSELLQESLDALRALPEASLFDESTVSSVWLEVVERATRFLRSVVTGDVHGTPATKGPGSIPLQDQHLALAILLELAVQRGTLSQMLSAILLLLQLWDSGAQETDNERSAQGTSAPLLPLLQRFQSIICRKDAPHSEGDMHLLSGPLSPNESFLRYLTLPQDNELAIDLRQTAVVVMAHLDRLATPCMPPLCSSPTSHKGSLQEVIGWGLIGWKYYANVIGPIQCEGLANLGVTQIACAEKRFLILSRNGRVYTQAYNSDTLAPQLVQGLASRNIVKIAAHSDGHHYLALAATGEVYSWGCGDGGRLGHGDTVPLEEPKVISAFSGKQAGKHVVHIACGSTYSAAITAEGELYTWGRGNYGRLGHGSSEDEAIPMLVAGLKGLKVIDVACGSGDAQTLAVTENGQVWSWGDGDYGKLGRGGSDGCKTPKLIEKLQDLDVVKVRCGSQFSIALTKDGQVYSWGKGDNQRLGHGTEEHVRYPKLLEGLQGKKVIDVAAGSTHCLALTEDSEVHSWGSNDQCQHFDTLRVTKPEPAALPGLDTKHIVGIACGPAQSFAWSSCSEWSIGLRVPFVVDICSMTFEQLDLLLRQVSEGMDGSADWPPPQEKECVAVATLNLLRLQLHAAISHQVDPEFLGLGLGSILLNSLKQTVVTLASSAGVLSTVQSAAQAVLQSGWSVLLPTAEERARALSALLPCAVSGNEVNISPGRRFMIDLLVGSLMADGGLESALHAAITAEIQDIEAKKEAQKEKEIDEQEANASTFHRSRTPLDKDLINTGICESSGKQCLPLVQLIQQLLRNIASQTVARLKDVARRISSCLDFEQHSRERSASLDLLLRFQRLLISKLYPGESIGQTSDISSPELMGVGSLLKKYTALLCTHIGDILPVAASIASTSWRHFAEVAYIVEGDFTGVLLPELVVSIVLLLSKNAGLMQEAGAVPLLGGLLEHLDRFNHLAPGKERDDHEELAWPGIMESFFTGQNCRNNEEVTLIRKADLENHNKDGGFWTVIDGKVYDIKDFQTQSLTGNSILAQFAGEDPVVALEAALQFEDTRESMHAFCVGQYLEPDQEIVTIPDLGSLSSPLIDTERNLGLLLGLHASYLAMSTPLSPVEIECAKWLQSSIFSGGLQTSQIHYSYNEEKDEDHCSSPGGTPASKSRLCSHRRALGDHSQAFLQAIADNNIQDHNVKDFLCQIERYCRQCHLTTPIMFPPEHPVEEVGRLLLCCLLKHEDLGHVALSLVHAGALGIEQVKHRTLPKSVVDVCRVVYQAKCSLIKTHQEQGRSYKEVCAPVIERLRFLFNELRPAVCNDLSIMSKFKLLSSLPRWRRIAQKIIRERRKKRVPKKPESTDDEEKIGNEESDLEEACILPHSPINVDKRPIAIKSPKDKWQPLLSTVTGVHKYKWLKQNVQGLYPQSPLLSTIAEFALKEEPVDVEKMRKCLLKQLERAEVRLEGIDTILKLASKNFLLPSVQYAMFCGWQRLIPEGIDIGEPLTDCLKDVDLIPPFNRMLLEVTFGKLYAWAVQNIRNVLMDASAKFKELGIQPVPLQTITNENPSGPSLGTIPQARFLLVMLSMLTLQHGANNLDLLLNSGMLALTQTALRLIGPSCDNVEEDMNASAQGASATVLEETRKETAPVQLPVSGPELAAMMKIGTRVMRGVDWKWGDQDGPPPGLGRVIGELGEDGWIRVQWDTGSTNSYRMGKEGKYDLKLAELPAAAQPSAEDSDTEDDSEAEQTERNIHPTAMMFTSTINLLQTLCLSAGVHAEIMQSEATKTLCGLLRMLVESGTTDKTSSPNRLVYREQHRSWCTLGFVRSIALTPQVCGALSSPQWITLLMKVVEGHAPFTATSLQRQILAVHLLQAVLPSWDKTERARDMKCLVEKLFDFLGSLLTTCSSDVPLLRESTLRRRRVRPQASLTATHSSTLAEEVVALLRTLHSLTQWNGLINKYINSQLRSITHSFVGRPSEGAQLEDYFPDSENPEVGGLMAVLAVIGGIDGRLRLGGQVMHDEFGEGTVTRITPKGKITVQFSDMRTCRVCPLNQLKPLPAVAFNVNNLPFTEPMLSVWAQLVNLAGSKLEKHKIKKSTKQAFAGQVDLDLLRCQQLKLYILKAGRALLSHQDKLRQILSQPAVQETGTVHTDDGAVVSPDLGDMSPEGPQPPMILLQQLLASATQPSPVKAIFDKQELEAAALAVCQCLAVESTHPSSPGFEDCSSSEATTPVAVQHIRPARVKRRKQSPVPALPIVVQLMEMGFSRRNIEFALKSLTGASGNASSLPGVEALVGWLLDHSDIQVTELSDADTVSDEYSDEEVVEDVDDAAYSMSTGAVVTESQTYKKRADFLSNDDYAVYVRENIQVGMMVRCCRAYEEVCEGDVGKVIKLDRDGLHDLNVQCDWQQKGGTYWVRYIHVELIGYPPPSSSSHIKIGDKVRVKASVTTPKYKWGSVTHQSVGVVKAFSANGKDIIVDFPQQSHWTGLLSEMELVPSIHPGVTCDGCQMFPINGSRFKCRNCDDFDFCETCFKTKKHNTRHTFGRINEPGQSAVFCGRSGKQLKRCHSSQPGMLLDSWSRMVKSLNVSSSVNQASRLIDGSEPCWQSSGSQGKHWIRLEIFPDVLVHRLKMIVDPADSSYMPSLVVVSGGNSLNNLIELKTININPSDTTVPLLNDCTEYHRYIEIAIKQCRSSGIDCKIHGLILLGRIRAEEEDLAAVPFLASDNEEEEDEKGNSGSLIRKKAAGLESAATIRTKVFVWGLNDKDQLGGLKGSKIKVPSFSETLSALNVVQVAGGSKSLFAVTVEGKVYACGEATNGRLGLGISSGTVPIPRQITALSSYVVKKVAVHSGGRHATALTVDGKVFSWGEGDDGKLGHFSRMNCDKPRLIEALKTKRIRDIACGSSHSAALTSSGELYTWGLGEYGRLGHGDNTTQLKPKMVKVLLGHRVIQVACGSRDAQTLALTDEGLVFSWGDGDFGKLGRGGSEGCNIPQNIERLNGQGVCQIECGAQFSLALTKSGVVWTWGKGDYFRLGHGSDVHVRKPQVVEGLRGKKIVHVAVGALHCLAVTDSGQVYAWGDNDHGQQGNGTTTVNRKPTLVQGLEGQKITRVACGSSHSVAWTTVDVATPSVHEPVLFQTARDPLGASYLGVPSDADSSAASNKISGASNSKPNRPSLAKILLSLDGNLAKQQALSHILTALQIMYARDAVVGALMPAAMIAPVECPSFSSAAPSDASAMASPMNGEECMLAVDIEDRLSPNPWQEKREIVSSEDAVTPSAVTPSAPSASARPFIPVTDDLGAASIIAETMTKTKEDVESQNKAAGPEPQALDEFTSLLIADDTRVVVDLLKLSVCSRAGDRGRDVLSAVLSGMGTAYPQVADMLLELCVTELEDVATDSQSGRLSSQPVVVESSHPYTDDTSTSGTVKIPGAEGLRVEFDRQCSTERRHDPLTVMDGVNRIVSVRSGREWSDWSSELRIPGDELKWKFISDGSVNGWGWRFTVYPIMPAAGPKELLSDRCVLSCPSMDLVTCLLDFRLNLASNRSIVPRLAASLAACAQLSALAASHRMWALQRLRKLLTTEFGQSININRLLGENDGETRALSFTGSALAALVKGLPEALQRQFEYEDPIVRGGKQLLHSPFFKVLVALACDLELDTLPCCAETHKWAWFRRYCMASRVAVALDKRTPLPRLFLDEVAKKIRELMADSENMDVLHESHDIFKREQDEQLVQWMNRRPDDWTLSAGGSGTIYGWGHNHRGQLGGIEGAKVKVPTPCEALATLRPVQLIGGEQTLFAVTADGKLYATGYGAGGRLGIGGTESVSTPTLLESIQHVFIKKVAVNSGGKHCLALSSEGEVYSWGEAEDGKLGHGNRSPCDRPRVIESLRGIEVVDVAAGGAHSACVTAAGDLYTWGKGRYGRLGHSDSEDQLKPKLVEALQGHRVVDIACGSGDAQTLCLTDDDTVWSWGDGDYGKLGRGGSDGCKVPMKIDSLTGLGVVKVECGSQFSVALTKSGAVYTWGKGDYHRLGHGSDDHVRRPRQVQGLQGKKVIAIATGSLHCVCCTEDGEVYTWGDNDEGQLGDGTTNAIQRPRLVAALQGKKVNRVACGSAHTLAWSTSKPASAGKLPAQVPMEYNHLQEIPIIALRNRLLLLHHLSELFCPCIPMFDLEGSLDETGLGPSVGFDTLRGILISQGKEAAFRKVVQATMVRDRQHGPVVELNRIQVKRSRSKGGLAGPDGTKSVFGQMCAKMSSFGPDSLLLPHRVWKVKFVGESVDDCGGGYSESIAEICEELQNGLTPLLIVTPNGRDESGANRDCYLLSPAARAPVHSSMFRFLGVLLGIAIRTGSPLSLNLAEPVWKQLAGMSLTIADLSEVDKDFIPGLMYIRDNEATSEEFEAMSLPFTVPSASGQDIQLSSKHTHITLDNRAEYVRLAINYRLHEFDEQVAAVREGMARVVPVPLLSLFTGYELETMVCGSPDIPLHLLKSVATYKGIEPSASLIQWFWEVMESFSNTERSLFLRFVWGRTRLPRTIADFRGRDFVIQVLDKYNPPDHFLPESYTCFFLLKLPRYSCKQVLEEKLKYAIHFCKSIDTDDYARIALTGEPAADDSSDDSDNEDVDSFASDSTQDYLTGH

No constants are given. Whether binding was seen depends on the method and setting. Binding seen in cells or lysates may run through a third protein. Some binding calls cover weakened binding; strength is not graded here.

In test [1] the target is GFP-NEURL4 fusion protein (UniProt Q96JN8). Kind of test: pull-down; lysates of transfected H1299 cells (GFP-NEURL4 with GST-p53 constructs) incubated with GFP-Trap beads overnight at 4 °C, washed five times with NP40 buffer, immunoblot; also after NT or HERC2 siRNA (72 h). On the technique in general: A western blot detects proteins with antibodies after separation by electrophoresis.

The target of test [2] is E3 ubiquitin ligase HERC2 (endogenous) (human (endogenous in HEK-293T, U2OS, H1299)) (UniProt O95714). Kind of test: co-IP; lysates (NP40 buffer) of HEK-293T cells immunoprecipitated with anti-HERC2 polyclonal antibody Bvg1 (against residues 4785-4834, carboxyl terminus), protein A-Sepharose, 4 °C, immunoblot.
The target is the same in test [3]. Kind of test: co-IP; lysates (NP40 buffer) of HEK-293T, U2OS and H1299 cells immunoprecipitated with anti-HERC2 polyclonal antibody Bvg9 (against residues 1-199), protein A-Sepharose, 4 °C, immunoblot; preimmune serum as control; also in U2OS after NT or NEURL4 siRNA (72 h); the antibody used in H1299 is not named.

As to “E3 ubiquitin ligase HERC2 (endogenous) (from UniProt O95714 1-4834)”, the binding result in test [1] was “binds”. “NEURL4 (endogenous), adaptor-like protein with six neuralized domains (from UniProt Q96JN8 1-1562)”: the binding entry in test [2] and in test [3] was “binds” throughout.
